# According to paper PMC7819943, “Rice protein-binding microarrays: a tool to detect cis-acting elements near promoter regions in rice”:
# Sequences of proteins named here, by UniProt entry; tags and fusion partners are left off.
# UniProt Q0JBA9, entry or part of it: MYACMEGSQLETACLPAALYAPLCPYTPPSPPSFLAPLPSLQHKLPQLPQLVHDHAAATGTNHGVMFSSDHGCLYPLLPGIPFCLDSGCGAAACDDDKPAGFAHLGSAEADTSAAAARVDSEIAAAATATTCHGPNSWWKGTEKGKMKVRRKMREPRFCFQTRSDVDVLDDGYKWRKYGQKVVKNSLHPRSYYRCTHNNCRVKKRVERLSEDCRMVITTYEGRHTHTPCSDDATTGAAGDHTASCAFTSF
# The list shows a part of the results.
# Target: OsWRKY34 (Oryza sativa, UniProt Q0JBA9 1-250)
# Assay: protein-binding microarray (RPBM); PBS, 2% BSA, 51.3 ng/ul salmon testes DNA, 50 uM zinc acetate, 200 nM TF, 25 C, 1 h; high values mean tight binding
# Conditions: protein: recombinant; tags: N-terminal polyhistidine and DsRed monomer fusion (pET32a); label: CyDye5-dUTP incorporated in the synthesized complementary strand; 3' TTTTT single-stranded linker to array surface; dsDNA, one strand shown
# In short: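 The binding signal is fluorescence intensity per array feature (arbitrary units). Readings came from an Axon 4000B scanner after a washed, 2% BSA-blocked, double-stranded custom Agilent array had been incubated for 1 h at 25 °C with 200 nM protein and 50 µM zinc acetate. The protein was a Ni–NTA-purified transcription factor fused N-terminally to polyhistidine and DsRed, expressed in E. coli BL21-CodonPlus.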
row,Sequence,binding signal
1,ATGCTTTTATCTATTGATGTTTTAATTGCAAGCTTTGTATCGGAGTCACCTAGTGCAG,9540 fluorescence intensity (a.u.)
2,GCCGCACCTGCGCCCACACCACACCACCAAACCGAACCCTCGGAGTCACCTAGTGCAG,9000 fluorescence intensity (a.u.)
3,ACCACCCTTCTATCTCTTCGCGTCCGTCTCCACCCCTTCGCGGAGTCACCTAGTGCAG,9630 fluorescence intensity (a.u.)
4,GTTCTTGCATGCTGTTCTTGTTGATCGAGTGAGAGAGGGGCGGAGTCACCTAGTGCAG,8100 fluorescence intensity (a.u.)
5,GTCCCGCCGCCCCGCTCCTGCGCCACCGCCGCCAGTCACTCGGAGTCACCTAGTGCAG,9890 fluorescence intensity (a.u.)
6,CAGAGTTTTTTGCCCTCTAATCGATTCTTTATCCTCATAGCGGAGTCACCTAGTGCAG,8570 fluorescence intensity (a.u.)
7,ATGTAGATGATGGTCTTTTATGAATCTATTTTTCTAATTGCGGAGTCACCTAGTGCAG,8160 fluorescence intensity (a.u.)
8,ATGCTCCCTCAATTCAGGGGTAGATCTGCTGGTTGACTTTCGGAGTCACCTAGTGCAG,8720 fluorescence intensity (a.u.)
9,TCTTAATGGTACAAAGGTTGTCTCTCTGCATTGTGCATACCGGAGTCACCTAGTGCAG,9080 fluorescence intensity (a.u.)
10,GTTGATTTTTTTTAAATATGTTTGACCGTTCGTCTTATTCCGGAGTCACCTAGTGCAG,8600 fluorescence intensity (a.u.)
11,GCCTTTTCGCTGCCGTCGCTGGTTGTTCGTGAGCTTCGGACGGAGTCACCTAGTGCAG,14300 fluorescence intensity (a.u.)
12,GCCGCGCCGCCCCAGCCGCCGCCATGCCACCGAAGGCCAACGGAGTCACCTAGTGCAG,8320 fluorescence intensity (a.u.)
13,CATCCTTCTTCATCGCTGCCATATCAGTCCTGAATTCGTTCGGAGTCACCTAGTGCAG,9760 fluorescence intensity (a.u.)
14,CCCCTTCCCCGCCCCGGCACCCGCATTCGCACCCGCACCGCGGAGTCACCTAGTGCAG,8710 fluorescence intensity (a.u.)
15,GCCCTCACACAGGGTTCTCTTGCGGGTTGGGGATCTCATCCGGAGTCACCTAGTGCAG,12900 fluorescence intensity (a.u.)
16,CCATTTGTGGTCAACACCTCGTAGCGTCCCTATTTAACGTCGGAGTCACCTAGTGCAG,10000 fluorescence intensity (a.u.)
17,AAGTTTTATTTATATATTTTTTTTTCATTTGCAAATCGGTCGGAGTCACCTAGTGCAG,8820 fluorescence intensity (a.u.)
18,GGATTTAAGTATCACATTTACGTCTATTTTTTCTTTTAGTCGGAGTCACCTAGTGCAG,9650 fluorescence intensity (a.u.)
19,TAGTAGTCTTGGTATGCAGTATTTATTTATTTAAATTTTTCGGAGTCACCTAGTGCAG,8180 fluorescence intensity (a.u.)
20,TTTTGACGACCCTAGCAATATTGCTATACACTCTTCATTCCGGAGTCACCTAGTGCAG,10700 fluorescence intensity (a.u.)
21,TAGTGGATGAGGTTGTACTGCGCCATCTGGTTCGACCACCCGGAGTCACCTAGTGCAG,9730 fluorescence intensity (a.u.)

row,Sequence,binding signal
1,CTGAGACAAGGGAATGCTTGGGGATCGGGGTAATTGATGACGGAGTCACCTAGTGCAG,8090 fluorescence intensity (a.u.)
2,TATAAGTATTTTCTATTTGCGTAAGTTTGGTTGCATTGTACGGAGTCACCTAGTGCAG,8930 fluorescence intensity (a.u.)
3,AATTCTCTTTTTACCTCTGCAAAAATAATTCTTTTTTTATCGGAGTCACCTAGTGCAG,9190 fluorescence intensity (a.u.)
4,CTCTGTTCTTGTTGTTCTTCACCACCATTGAGCTACCATCCGGAGTCACCTAGTGCAG,11400 fluorescence intensity (a.u.)
5,CCCTCCCGCGCCGCCGCCCTCCGGTTGTCTTCCTCGCGGTCGGAGTCACCTAGTGCAG,9420 fluorescence intensity (a.u.)
6,CAGTCCGATATCCTCTTTGCCAAGCTCACGGCCCAGTACGCGGAGTCACCTAGTGCAG,10300 fluorescence intensity (a.u.)
7,CCAACAAGGCCTACTCGCACGTCGTCACTCCGTCCATCTCCGGAGTCACCTAGTGCAG,8220 fluorescence intensity (a.u.)
8,CGGAGTTTGATTGCCCTATAGCTTTTTCACTCGTTTATCACGGAGTCACCTAGTGCAG,8310 fluorescence intensity (a.u.)
9,GGGGTTTGTCCCATCTCGCCTTTCTTAAGTTCTTTTCTGTCGGAGTCACCTAGTGCAG,9380 fluorescence intensity (a.u.)
10,GATCCGTCCGTCCGCCCGCCCGTCGTCGTCGCGCGCCATGCGGAGTCACCTAGTGCAG,8290 fluorescence intensity (a.u.)
11,TTTTAGTGAATATAATGAAATTTCACAGGGGAGGGGCTGGCGGAGTCACCTAGTGCAG,8310 fluorescence intensity (a.u.)
12,TCGTGCATTGTTGTTGCACAATTTCAAATTGTCACGCATCCGGAGTCACCTAGTGCAG,8180 fluorescence intensity (a.u.)
13,CGCAATCCTTCCGTTCTTTTTTTACATGCTGTTGATGTCACGGAGTCACCTAGTGCAG,12000 fluorescence intensity (a.u.)
14,CGTCCAGCCTAACTATTAATTTCTTGGTTCTTACCAGTATCGGAGTCACCTAGTGCAG,8230 fluorescence intensity (a.u.)
15,TGGTGATGTGGACGAATCTCATAGGCTCGTTTTTAGATCTCGGAGTCACCTAGTGCAG,8050 fluorescence intensity (a.u.)
16,CACCGTTGTATTCGTTGTATTCGTTGTAATTAAATCTTTACGGAGTCACCTAGTGCAG,9230 fluorescence intensity (a.u.)
17,AAAAGCCGACCACCGACCCCACGTTCCGCACGCACGAAACCGGAGTCACCTAGTGCAG,8920 fluorescence intensity (a.u.)
18,TCACGCAAACTCAACCCCACTTTTTTTTTCTCTCGTTTCGCGGAGTCACCTAGTGCAG,8180 fluorescence intensity (a.u.)
19,AACACCAAGCTTTCGCGTCTGCCGACCAAGACGAACCCAACGGAGTCACCTAGTGCAG,12000 fluorescence intensity (a.u.)
20,ATATATGTTCCCCTATGTGTGTCAGTTGTAAACAATAATCCGGAGTCACCTAGTGCAG,8320 fluorescence intensity (a.u.)
21,CTTTCACTACCAGAGTTATGTTTGACACTATCACATTCTCCGGAGTCACCTAGTGCAG,8770 fluorescence intensity (a.u.)

# Looked up above.
# Value of CGCAATCCTTCCGTTCTTTTTTTACATGCTGTTGATGTCACGGAGTCACCTAGTGCAG under binding signal: 12000 fluorescence intensity (a.u.)
# Value of GCCGCGCCGCCCCAGCCGCCGCCATGCCACCGAAGGCCAACGGAGTCACCTAGTGCAG under binding signal: 8320 fluorescence intensity (a.u.)
